Data set [1] concerns the target alpha-synuclein amyloid fibrils (sonicated for SPR) (UniProt P37840). Kind of data set: SPR. The conditions noted are these: apparent Kd in monomer units, 1:1 model, average of 3 experiments; SPR: HBS-P, 10 mM HEPES, 150 mM NaCl, 0.002% P20; 200 RU DNA immobilized, single cycle, regeneration with 5 M NaCl; pH and temperature not stated; recombinant protein.
A further data set deals with alpha-synuclein monomer (UniProt P37840). The data set can be described thus: SPR. The note with it: up to 5 uM monomer; SPR: HBS-P, 10 mM HEPES, 150 mM NaCl, 0.002% P20; 200 RU DNA immobilized, single cycle, regeneration with 5 M NaCl; pH and temperature not stated; recombinant protein.

Construct, isoform or probe ends are uncertain for at least one entry. For some assays here: Negatives hold for the conditions tested.

“CGATTCAGTAGCAGACAGCTAGCTAGAGAGCTCATCATGTCCAGATCTCC (double strand) [50-bp dsDNA]”: the Kd in data set [1] is 4 µM. The binding result in the data set with alpha-synuclein monomer is “no binding”.

(Values after PMC11803820.)
